In PMC12064789:
No constants are given. Whether binding was seen depends on the method and setting. In cells and extracts the contact can be indirect. These calls come from enrichment with a bait or labelling near it, and not all partners need be listed.

By UniProt entry, the sequences of proteins in these tests, tags left out.
UniProt P67809: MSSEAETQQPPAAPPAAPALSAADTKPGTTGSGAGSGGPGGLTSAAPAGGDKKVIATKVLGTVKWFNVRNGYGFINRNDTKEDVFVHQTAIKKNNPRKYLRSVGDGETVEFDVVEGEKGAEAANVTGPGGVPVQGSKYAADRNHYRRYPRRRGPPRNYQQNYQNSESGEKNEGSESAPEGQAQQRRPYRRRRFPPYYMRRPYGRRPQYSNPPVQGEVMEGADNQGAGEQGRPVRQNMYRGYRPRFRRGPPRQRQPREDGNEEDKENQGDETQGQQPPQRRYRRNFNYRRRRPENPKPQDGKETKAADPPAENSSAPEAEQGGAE

Molecular target: T1, Cartilage Intermediate Layer Protein 1 (CILP1) (human (endogenous in HSFs)) (UniProt O75339)
T1 sequence: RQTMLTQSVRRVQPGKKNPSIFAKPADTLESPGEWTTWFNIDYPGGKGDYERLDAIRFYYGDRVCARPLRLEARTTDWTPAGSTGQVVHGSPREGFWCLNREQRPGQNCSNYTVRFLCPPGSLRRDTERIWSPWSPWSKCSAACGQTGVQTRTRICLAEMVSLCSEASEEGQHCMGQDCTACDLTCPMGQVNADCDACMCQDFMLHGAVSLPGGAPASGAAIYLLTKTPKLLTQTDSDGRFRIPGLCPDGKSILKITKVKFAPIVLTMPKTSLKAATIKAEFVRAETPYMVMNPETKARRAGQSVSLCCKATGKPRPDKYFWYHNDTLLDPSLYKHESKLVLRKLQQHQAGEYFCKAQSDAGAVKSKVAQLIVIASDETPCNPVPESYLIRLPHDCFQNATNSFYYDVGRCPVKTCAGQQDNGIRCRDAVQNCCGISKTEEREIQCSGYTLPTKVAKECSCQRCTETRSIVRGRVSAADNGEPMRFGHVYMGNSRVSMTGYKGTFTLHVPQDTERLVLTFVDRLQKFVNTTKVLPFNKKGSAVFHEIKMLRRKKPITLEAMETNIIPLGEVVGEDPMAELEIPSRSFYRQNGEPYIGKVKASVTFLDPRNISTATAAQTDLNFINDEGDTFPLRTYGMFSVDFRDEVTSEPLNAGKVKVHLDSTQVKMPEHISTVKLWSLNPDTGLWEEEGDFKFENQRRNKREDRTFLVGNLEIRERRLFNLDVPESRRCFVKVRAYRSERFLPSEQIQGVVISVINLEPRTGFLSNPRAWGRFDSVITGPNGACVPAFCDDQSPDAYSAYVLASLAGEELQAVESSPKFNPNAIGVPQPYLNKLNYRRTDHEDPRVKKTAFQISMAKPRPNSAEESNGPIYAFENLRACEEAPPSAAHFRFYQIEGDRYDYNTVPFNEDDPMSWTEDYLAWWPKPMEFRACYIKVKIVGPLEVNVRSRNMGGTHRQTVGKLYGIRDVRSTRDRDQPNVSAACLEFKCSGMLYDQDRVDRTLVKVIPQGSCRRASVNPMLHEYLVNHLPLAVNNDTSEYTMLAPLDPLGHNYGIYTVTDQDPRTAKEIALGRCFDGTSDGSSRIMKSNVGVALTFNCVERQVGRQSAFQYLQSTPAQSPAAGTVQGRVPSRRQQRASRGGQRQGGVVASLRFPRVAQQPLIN
Experiment: affinity purification with mass spectrometry; 5 ug CILP1 antibody or IgG incubated overnight with about 1000 ug total protein of HSFs, Protein A/G PLUS-Agarose for 4 h, SDS-PAGE, nano-HPLC-MS/MS; called 'pull-down-MS' in the results

binding: binds
Substance: Y-box-binding protein 1 (YBX1) (from UniProt P67809 1-324)
